# These are yes or no findings as the source states them, for the method shown. In cells and extracts the contact can be indirect. Some binding calls cover weakened binding; strength is not graded here. Tags and fused reporters may be left off the sequences shown.
# B1: GFP-tagged SHP (small heterodimer partner, NR0B2) (protein, UniProt Q62227 1-260)
# chain: MSSGQSGVCPCQGSAGRPTILYALLSPSPRTRPVAPASHSHCLCQQQRPVRLCAPHRTCREALDVLAKTVAFLRNLPSFCHLPHEDQRRLLECCWGPLFLLGLAQDAVTFEVAEAPVPSILKKILLEEASSGTQGAQPSDRPQPSLAAVQWLQRCLESFWSLELGPKEYAYLKGTILFNPDVPGLRASCHIAHLQQEAHWALCEVLEPWYPASQGRLARILLMASTLKNIPGTLLVDLFFRPIMGDVDITELLEDMLLLR
# Columns and labels:
# FLAG-tagged REV-ERBα [1] = target: T1, FLAG-tagged REV-ERBα (UniProt Q3UV55); assay: co-IP; HEK 293 cells transfected with indicated plasmids for 24 hours before treatment (GW4064, with or without ethanol); Pierce IP lysis buffer; anti-flag M2 magnetic beads; detected with mouse anti-FLAG and rabbit anti-GFP
# T1 sequence: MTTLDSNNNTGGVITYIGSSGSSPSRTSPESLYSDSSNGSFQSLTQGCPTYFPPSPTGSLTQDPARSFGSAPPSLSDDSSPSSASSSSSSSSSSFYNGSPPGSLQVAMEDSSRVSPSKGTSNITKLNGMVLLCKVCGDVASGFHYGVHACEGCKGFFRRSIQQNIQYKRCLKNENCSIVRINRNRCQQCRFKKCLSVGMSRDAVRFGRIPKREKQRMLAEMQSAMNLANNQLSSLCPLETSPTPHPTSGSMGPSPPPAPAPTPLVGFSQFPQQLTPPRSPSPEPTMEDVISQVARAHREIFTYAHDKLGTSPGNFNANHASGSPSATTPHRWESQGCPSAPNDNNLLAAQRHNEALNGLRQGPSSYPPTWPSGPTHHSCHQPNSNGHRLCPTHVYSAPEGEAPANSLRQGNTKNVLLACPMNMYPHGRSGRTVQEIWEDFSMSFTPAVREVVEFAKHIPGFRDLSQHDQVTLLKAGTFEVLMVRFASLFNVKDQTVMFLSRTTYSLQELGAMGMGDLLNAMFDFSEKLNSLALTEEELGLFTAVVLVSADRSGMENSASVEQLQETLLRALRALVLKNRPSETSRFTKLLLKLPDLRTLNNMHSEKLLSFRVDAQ
# FLAG-tagged REV-ERBα [2] = target: T1, FLAG-tagged REV-ERBα; assay: proximity ligation; Duolink in situ PLA (Red Starter Kit mouse/rabbit); FLAG-REV-ERBα and GFP-SHP coexpressed in HEK293T cells for 24 hours; cells fixed with 4% paraformaldehyde; mouse anti-FLAG and rabbit anti-GFP; confocal imaging
binder,measurement,setting,value
B1,binding,FLAG-tagged REV-ERBα [1],binds
same,binding,FLAG-tagged REV-ERBα [2],binds
